From ChEMBL document CHEMBL3988442, “University of Dundee, Small-Polar-MMV Screening Library” (2021).

Mtb growth Cornell: 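Whole-cell assay for inhibitors of Mycobacterium tuberculosis growth, labelled Cornell in the record; the read-out is not stated. The concentration is filed as 10 mM, unlikely as a test dose, so the dose is not known. The record gives no direction; compounds strong in two other growth screens of this library score well above the rest, so higher reads as stronger inhibition. About 53,000 compounds were tested under these conditions; 1.7% (about 900) showed 50% or more at least once.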
Mtb heat-shock: 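Assay on Mycobacterium tuberculosis, filed only as a heat shock assay from Cornell; the read-out is not stated. The concentration is filed as 10 mM, unlikely as a test dose, so the dose is not known. The record gives no direction; compounds that gave an IC50 in retests scored well above the rest, so higher reads as stronger inhibition. About 69,000 compounds were tested under these conditions; 1.4% (about 930) showed 50% or more at least once.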

Each number is a percent effect as filed.
The record does not define 0% and 100%; most values in the screen are far below 50% and negative numbers occur (in some assays of this library far below -100).
This is an unselected part of the compounds tested.
A dash means the value is not listed here; it may have been measured.

| # | SMILES | Mtb growth Cornell | Mtb heat-shock |
|---|---|---|---|
| 1 | `Cl.O=C(N1CCOCC1)N1CCCC2(CCCNC2)C1` (stereo unspecified) | - | -11.29 |
| 2 | `Cn1c2c(c(=O)n1C)CN(C(=O)c1cnccn1)CCC2` | -4.125 | 15.07 |
| 3 | `COC(=O)c1ccc(/C=C/c2ncc(C(=O)O)s2)cc1` | -56.58 | -9.621 |
| 4 | `CC1CN(CCc2ccccn2)CCN1c1ccc2nncn2n1` (stereo unspecified) | - | 3.889 |
| 5 | `CCn1cc(CN(C)S(=O)(=O)c2ccc(C)c(C)c2)cn1` | - | -2.725 |
| 6 | `COCC1c2c(cnn2CC2CCOCC2)CCN1Cc1ccoc1.O=C(O)C(F)(F)F.O=C(O)C(F)(F)F` (stereo unspecified) | 28.86 | -1.589 |
| 7 | `O=S(=O)(c1cc(F)ccc1F)N1CCCC1c1ccncc1` (stereo unspecified) | 7.912 | -10.05 |
| 8 | `Cc1n[nH]c(C)c1CC(=O)N1CCC2(CC1)CN(C)CCN2C` | -31.8 | 14.78 |
| 9 | `Cc1ncc2c(n1)C1(CCN(C(=O)C3CC3)CC1)OCC2.Cl` | 55.8 | 6.327 |
| 10 | `COc1cccc(-c2cc(-c3nc(CN4CCN(C)CC4)no3)[nH]n2)c1` | -1.643 | -14.39 |
| 11 | `CN1CCN(C(=O)COCc2nc(-c3ccncc3)no2)CC1` | -23.45 | -22.97 |
| 12 | `O=C(O)C(F)(F)F.O=C(O)C(F)(F)F.O=C(O)C(F)(F)F.[H][C@@]12CCN(Cc3cccnc3)C[C@]1([H])[C@H](C(=O)Nc1cccnc1)CCO2` | 10.4 | -27.36 |
| 13 | `Cc1ccc2c(n1)N(CCN(C)C)CCN(C(=O)c1ccc[nH]1)C2.O=C(O)C(F)(F)F.O=C(O)C(F)(F)F` | - | -4.297 |
| 14 | `COc1c(CNCC(O)c2cccc(F)c2)c(C(C)C)nn1C` (stereo unspecified) | - | 6.591 |
| 15 | `Cc1ccc(CN(C)C(=O)NCC(C)(C)CCS(C)(=O)=O)s1` | 23.25 | 11.34 |
| 16 | `N#CCCN(Cc1ccccn1)C(=O)c1cccc(CN2CCCC2)c1` | - | 15.04 |
| 17 | `CCc1nccn1CCC(=O)N1CC[C@H](CO)[C@H](O)C1` | -15.79 | 13.08 |
| 18 | `COC(=O)c1cccc(S(=O)(=O)NCc2cccnc2N(C)C)c1` | - | -10.14 |
| 19 | `CC(C)n1cnnc1CN(C)C(=O)CCn1cnc2ccccc2c1=O` | 2.005 | 14.27 |
| 20 | `CS(=O)(=O)N1CCC2(CC1)CC(OCC1CCOCC1)CO2` (stereo unspecified) | 21.39 | 4.712 |
| 21 | `O=C(CCOc1ccccc1F)N1CCC(O)CC1` | 9.235 | 0.731 |
| 22 | `CCC(Oc1ccc(N(C)S(C)(=O)=O)cc1)C(=O)N(C)C` (stereo unspecified) | - | -0.9533 |
| 23 | `CCN(CC1CCCO1)S(=O)(=O)N1CCCCCC1` (stereo unspecified) | 14.88 | -9.603 |
| 24 | `CNC(=O)CC1CCN(Cc2nc(-c3ccc(SC)cc3)oc2C)CC1` | - | 1.977 |
| 25 | `CC(=O)N1CCN(Cc2ccc(F)c(C(F)(F)F)c2)CC(O)C1` (stereo unspecified) | 7.211 | 16.23 |
| 26 | `CNC(=O)Cc1ccccc1NC(=O)NCc1ccc(SC)cc1` | -9.715 | 29.52 |
| 27 | `CCn1c(C)nnc1SCCNc1nc(C)nc2c1cnn2C` | 13.11 | -14.04 |
| 28 | `CC(C)c1nnc(CCC(=O)N2CCCC(c3cnccn3)C2)o1` (stereo unspecified) | 8.844 | -2.24 |
| 29 | `N#Cc1ccc(C(=O)N2CCn3cc(CN4CCCCC4)nc3C2)cc1` | 9.554 | -7.602 |
| 30 | `Cc1nc(C(C)(C)NC(=O)Nc2ccncc2)no1` | 10.48 | -42.25 |
| 31 | `Cc1cnn(CC2CCCN2CC(=O)NCc2ccccn2)c1` (stereo unspecified) | - | -22.46 |
| 32 | `COc1ccccc1N1CCC(CNS(=O)(=O)c2c(C)nn(C)c2C)C1` (stereo unspecified) | 0.3321 | -1.412 |
| 33 | `Cc1ncsc1C(=O)NC1CCN(CC(=O)NCc2ccccc2)CC1` | 22.58 | -11.46 |
| 34 | `[H][C@@]12CS(=O)(=O)C[C@]1([H])N(C(=O)CCn1cc(C)cn1)CCN2C(=O)C1CC1` | -13.17 | 15.79 |
| 35 | `Cn1nnc2cc(C(=O)NS(=O)(=O)c3cccc(C#N)c3)ccc21` | - | 0.05247 |
| 36 | `CCn1cc(-c2cc(C(F)F)nc3sc(C(N)=O)c(N)c23)c(C)n1` | 26.26 | -12.86 |
| 37 | `Nc1cc(C(=O)N2CCOC(Cc3cccc(C(F)(F)F)c3)C2)ccn1` (stereo unspecified) | 5.434 | -14.66 |
| 38 | `O=C(O)c1cc(-c2cncnc2)cc(S(=O)(=O)N2CCCCCC2)c1` | -82.4 | 0.9513 |
| 39 | `Cc1c[nH]nc1C1CCCCN1C(=O)CCn1nccc1C` (stereo unspecified) | - | -27.63 |
| 40 | `Cc1cnn(C2CN(CC(O)c3ccc(F)cc3)C2)c1` (stereo unspecified) | 12.36 | -7.485 |
| 41 | `CCn1ncc2c1C(COCC1CC1)CN(S(=O)(=O)N(C)C)C2.O=C(O)C(F)(F)F` (stereo unspecified) | 38.15 | -38.93 |
| 42 | `O=C(NCc1ccco1)c1nn(C2CCS(=O)(=O)C2)c2c1CCCC2` (stereo unspecified) | -50.23 | 2.882 |

3 of the entries, repeated:

| SMILES | Mtb growth Cornell | Mtb heat-shock |
|---|---|---|
| `Cc1ccc(CN(C)C(=O)NCC(C)(C)CCS(C)(=O)=O)s1` | 23.25 | 11.34 |
| `CC1CN(CCc2ccccn2)CCN1c1ccc2nncn2n1` (stereo unspecified) | - | 3.889 |
| `Cn1c2c(c(=O)n1C)CN(C(=O)c1cnccn1)CCC2` | -4.125 | 15.07 |